According to publication PMC7862700:
Only a part is listed here, and it is no random draw. For part of these data: At the low end of the ranking the order means little. This is one part of the list. For part of these data: The exact form of the protein is not confirmed.

Protein sequences, listed by entry. Tags and fused reporters are not part of them. Lines headed by an entry give the natural chain unless they say otherwise; changes in a name come on top.
UniProt Q00613: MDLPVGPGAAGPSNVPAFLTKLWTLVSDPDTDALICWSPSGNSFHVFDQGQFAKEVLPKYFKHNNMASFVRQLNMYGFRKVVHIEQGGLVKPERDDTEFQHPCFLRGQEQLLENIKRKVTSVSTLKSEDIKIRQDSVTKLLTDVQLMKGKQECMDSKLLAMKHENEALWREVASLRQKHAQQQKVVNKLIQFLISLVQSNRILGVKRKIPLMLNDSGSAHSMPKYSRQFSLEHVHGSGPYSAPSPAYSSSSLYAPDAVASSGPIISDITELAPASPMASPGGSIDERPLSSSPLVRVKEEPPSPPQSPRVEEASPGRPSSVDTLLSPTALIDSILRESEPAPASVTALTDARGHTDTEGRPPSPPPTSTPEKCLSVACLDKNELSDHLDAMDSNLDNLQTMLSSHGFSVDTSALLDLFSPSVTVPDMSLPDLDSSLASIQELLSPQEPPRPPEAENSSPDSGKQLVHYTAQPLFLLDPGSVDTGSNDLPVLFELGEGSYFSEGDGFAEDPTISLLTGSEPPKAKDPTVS

Columns and labels:
HSF1 = HSF1 (UniProt Q00613); assay: DAPPL (digital affinity profiling via proximity ligation, sequencing); details: 10 mM Tris-HCl pH 7.5, 50 mM NaCl, 1 mM DTT, 4% glycerol, room temperature, 30 min; GST-TFs on glutathione beads, 16-mer random dsDNA library, 0.1% …; high values mean tight binding; double strand, one strand shown; scale: fold enrichment (6-mer frequency, TF over GST control)
ELF2 = target: T1, ELF2 (UniProt Q15723); assay: as above; details: 10 mM Tris-HCl pH 7.5, 50 mM NaCl, 1 mM DTT, 4% glycerol, room temperature, 30 min; GST-TFs on glutathione beads, 16-mer random dsDNA library, 0.1% …; high values mean tight binding; double strand, one strand shown; scale: fold enrichment (6-mer frequency, TF over GST control)
T1 sequence: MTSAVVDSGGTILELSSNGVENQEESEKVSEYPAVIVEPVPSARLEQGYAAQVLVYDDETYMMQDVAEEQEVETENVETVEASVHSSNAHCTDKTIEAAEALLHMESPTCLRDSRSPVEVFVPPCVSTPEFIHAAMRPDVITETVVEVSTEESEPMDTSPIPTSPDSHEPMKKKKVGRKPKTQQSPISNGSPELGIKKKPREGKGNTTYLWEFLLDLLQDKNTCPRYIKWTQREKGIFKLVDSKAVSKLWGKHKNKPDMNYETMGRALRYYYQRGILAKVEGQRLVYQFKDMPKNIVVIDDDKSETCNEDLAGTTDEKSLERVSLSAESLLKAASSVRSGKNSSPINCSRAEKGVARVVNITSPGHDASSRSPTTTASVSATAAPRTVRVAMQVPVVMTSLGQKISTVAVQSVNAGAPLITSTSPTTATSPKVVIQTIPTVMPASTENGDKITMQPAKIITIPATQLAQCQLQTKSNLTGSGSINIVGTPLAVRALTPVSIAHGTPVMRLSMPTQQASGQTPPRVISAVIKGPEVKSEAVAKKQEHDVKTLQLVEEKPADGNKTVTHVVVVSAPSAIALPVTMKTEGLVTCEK

Sequence	binding signal (HSF1)	binding signal (ELF2)
GTTGGC	0.729	0.896
TGGCAC	1.03	1.09
GTTGCC	0.748	0.935
TGGTCG	0.75	0.884
CGCGTT	0.903	1.05
TTACGC	1.39	1
